Results on 64 molecules are retold here after US20040043420A1, “Method of identifying conformation-sensitive binding peptides and uses thereof” (priority 2003, published 2004).

The chains behind the UniProt entries cited, without tags or fusion partners.
UniProt Q92731: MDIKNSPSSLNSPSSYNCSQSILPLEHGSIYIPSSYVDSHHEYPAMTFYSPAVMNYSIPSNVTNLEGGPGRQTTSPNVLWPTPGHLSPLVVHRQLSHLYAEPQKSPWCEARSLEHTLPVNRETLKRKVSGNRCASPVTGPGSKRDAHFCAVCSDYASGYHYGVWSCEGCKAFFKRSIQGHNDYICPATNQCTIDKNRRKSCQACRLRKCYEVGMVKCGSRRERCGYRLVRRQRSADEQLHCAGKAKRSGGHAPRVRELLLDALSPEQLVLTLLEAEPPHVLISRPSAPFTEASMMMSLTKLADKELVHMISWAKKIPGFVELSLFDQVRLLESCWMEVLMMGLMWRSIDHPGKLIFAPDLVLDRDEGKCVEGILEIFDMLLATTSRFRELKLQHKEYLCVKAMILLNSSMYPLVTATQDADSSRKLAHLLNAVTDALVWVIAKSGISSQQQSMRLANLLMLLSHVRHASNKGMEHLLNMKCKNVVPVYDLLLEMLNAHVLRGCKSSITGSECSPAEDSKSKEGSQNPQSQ

These are yes or no findings as the source states them, for the method shown. Some entries that bind do so weakly or less than the wild type.

The target of one assay is T1, ER β (UniProt Q92731 1-530, limits assumed).
T1 construct: In vitro; also called estrogen receptor β; ERβ-ERE
Nature of the assay: phage isolated on ERβ-ERE; Estradiol.
In the case of SSDTRSRLYELLSSSYTSR [5E-β], the binding entry is listed as “binds”.
Consider SRLEELLRVGVLTSR [6E-β], for which the binding entry was “binds”.
Still for that read-out and setting: to SSRGLLWDLLTKDSR [1E-β] belongs “binds”.
In the case of SSRTPILFSLLETSR [11E-β], the binding entry is “binds”.
For the molecule SRDWRSGFLYELLSR [4E-β], the binding entry was “binds”.
On to SRWWLDDHELLLYSSR [26E-β], for which the binding entry is “binds”.
In the case of SSHCHTRLCSLLTSR [15E-β], the binding entry was “binds”.
In the case of SRNLLCLLDQEACSR [17E-β], the binding result is reported as “binds”.
Same read-out and setting: for SSAGLLEDMLRSRSR [21E-β] the value was “binds”; for SSRLLCLLDAGQCSR [16E-β], “binds”.
SSTTWRCPEWYCGSR [30E-β]: the binding result is reported as “binds”.
Still for that read-out and setting: for SRLHDLLLRDESPSR [3E-β] the value was “binds”.
In the case of SSRCSSLLCEMLIQTKESR [22E-β], the binding result is reported as “binds”.
SSRTLYCHLTSSNPEWCSR [27E-β]: the binding result is recorded as “binds”.
Take SSYEIPKWALQWLSR [34E-β]: the binding result was “binds”.
As to SSILERLLGGGSAETV [9E-β], the binding result is on record as “binds”.
On the same count and under the same terms, for SSYDWQCPSWYCPAPPSSR [29E-β] the value was “binds”; for SSGSSAGRLMMLLQDGVSR [13E-β], “binds”; for SSRPSFTIPWWFDDPSRSR [33E-β], “binds”.
In the case of SRPEGSSWLLHYLSR [24E-β], the binding entry is reported as “binds”.
As for SSLKCLLNSNFCSR [18E-β], the binding entry was “binds”.
On to SRLEDLLRGDSKPQSR [7E-β], for which the binding entry is “binds”.
For SSTRLMCWLGSADTSHCSR [28E-β], the binding entry is given as “binds”.
On to SRHGILWDLLQGDSR [2E-β], for which the binding entry is given as “binds”.
As for SSRTLLEHYLLGGSR [20E-β], the binding entry is recorded as “binds”.
Regarding SSLQAGSWLMHYLRGGDSR [23E-β], the binding result is “binds”.
With SSLKCLLQSSPQKQPFCSR [19E-β], the binding entry is listed as “binds”.
Consider SSPTGHRLLESLLLNSNSR [8E-β], for which the binding entry was “binds”.
In the case of SSQWQAPWWYIDASR [32E-β], the binding result is on record as “binds”.
For the molecule SSWDFRVPWWYNNSR [31E-β], the binding entry is reported as “binds”.
On to SRSPILWHLLQDGSR [10E-β], for which the binding entry is reported as “binds”.
In the case of SSIKDFPNLISLLSR [12E-β], the binding result is given as “binds”.
On to SREGLLMRLLIGDSR [14E-β], for which the binding result is recorded as “binds”.

A further assay deals with T1, ER β. Nature of the assay: phage isolated on ERβ-ERE; Buffer.
In the case of SSQVWPGPWRLVESR [14B-β], the binding result is reported as “binds”.
For the molecule SSTSWLHHYLMGTSR [8B-β], the binding result is listed as “binds”.
For the molecule SSSGPWRWGLSIESR [17B-β], the binding result was “binds”.
On to SYSKEWFEERLNSR [4B-β], for which the binding result is listed as “binds”.
Same read-out and setting: for SSGPWLMHYLGGGSR [7B-β] the value was “binds”.
Turning to SSWPNPTFWERQLSR [3B-β], the binding entry is listed as “binds”.
On to SRGGGECLGPWCLSR [9B-β], for which the binding entry was “binds”.
For SSWPGAEWFKEQLSR [20B-β], the binding result is “binds”.
Turning to SRECVGGWCLAELSR [18B-β], the binding result is reported as “binds”.
As to SSIPPRSWWLSQLSR [19B-β], the binding entry was “binds”.
On to SRLHCLLDSSYCSSR [1B-β], for which the binding entry is reported as “binds”.
As to SSSLGPWRLSELESR [16B-β], the binding result was “binds”.
For SSSMMREFFERELSR [5B-β], the binding entry is listed as “binds”.
Turning to SSGLPPNFERMLKSR [6B-β], the binding result was “binds”.

A further assay has as its target T1, ER β. Nature of the assay: phage isolated on ERβ-ERE; Tamoxifen.
SSQEEWLLPWRLASR [8T-β]: the binding result is recorded as “binds”.
As for SSWNSREFFLSQLSR [5T-β], the binding entry was “binds”.
Same read-out and setting: for SSRLVPHSFWLDGLMHGSR [21T-β] the value was “binds”; for SSDLYSQMREFFQINLSR [23T-β], “binds”.
On the same count and under the same terms, to SRPYCLGDVWCLDSR [2T-β] belongs “binds”; to SRLNGVFCHDSSDLWVCSR [18T-β], “binds”; to SRMFQVCGDEVCLRSR [16T-β], “binds”.
SSDLHRDCLGVWCLSR [17T-β]: the binding entry is reported as “binds”.
The same measure, in the same setting: for SSVFTIMDGKVALSR [1T-β] the value was “binds”; for SSARPWWLQFEGSSR [7T-β], “binds”; for SRPGCLRGVWCLADTPPSR [20T-β], “binds”.
On the same count and under the same terms, for SSISTYHMGEWFYAMLSSR [22T-β] the value was “binds”.
Still for that read-out and setting: to SSGPFYVGGMLWPADCLSR [10T-β] belongs “binds”; to SRNECIGPWCLTISR [13T-β], “binds”.
For SREGWMGPWRLADSR [12T-β], the binding entry is on record as “binds”.
For SSTTMFDFFYERLSR [6T-β], the binding result is on record as “binds”.
SSVASREWWVRELSR [15T-β]: the binding result is reported as “binds”.
